Measurements taken from PubChem BioAssay AID2810 (NMMLSC, 2010).
Some of the results follow. The main result of the screen is listed elsewhere. These columns were measured beside it and carry no call.

Assay: modulators of CD8 T cell-vesicle binding, confirmation, cherry-picked primary hits, two concentrations (AID 2810);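 further: lower values mean blocking of vesicle binding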;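 on percent response (vesicle binding): ratio of mean FL2 vesicle stain of CD8+ cells to that row's control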
Conditions: 2C CD8+ T cell-vesicle binding, flow cytometry; for double positive events: CD8+/vesicle+ events
[1] = at 15.4 µM, stronger effect = lower value

Row | SMILES | double positive events (at 7.7 µM) [%] | double positive events [1] [%] | percent response (vesicle binding) (at 7.7 µM) [%]
1 | Cc1ccccc1NS(=O)(=O)c1ccc(NC(=O)CSCc2ccc(Br)cc2)cc1 | 8.1 | 26 | 308
2 | CCOC(=O)CSc1nc(COc2ccccc2)nc2ccccc12 | 12 | 12.3 | 198
3 | CN(CC(=O)Nc1cc(S(=O)(=O)N2CCCC2)ccc1Cl)Cc1ccc2c(c1)OCO2 | 26.3 | 8.1 | 403
4 | COc1cc(C(=O)NC(=S)Nc2ccc3oc(=O)ccc3c2)cc(OC)c1OC | 28.6 | 24.3 | 312
5 | O=C(CCc1nc2ccccc2c(=O)[nH]1)N1CCCc2ccccc21 | 16.5 | 35.1 | 183
6 | C[C@H](CO)N1C[C@H](C)[C@@H](CN(C)C(=O)Nc2ccc(C(F)(F)F)cc2)Oc2c(NC(=O)Nc3ccccc3)cccc2C1=O | 13.5 | 11 | 328
7 | O=C(COC(=O)c1cncc(Br)c1)Nc1ccc(N2CCCCC2)cc1 | 8.7 | 10.2 | 383
8 | O=C(NCC(c1cccs1)N1CCc2ccccc21)c1ccccc1 (stereo not given) | 18.4 | 19.6 | 224
9 | C=CCN1C(=O)C(Cc2ccc(F)cc2)S/C1=N/N=C/c1ccco1 (stereo not given) | 21.6 | 31.5 | 296
10 | CCc1c(C)sc(NC(=O)c2cc(-c3cc(OC)ccc3OC)on2)c1C#N | 17 | 22.6 | 141
11 | COC(=O)N/N=C/c1cn(CC(C)COc2ccccc2)c2ccccc12 (stereo not given) | 15.6 | 13.6 | 153
12 | Cc1sc2nc(COC(=O)c3ccc(N4CCCC(C)C4)c([N+](=O)[O-])c3)[nH]c(=O)c2c1C (stereo not given) | 33.6 | 32 | 195
13 | CCCCNc1nc(N)ncc1[N+](=O)[O-] | 12.9 | 22.4 | 503
14 | CCn1cc(C(=O)O)c(=O)c2cc(F)c(N3CCN(C(=S)NC(=O)c4ccccc4)CC3)cc21 | 14.9 | 35.7 | 203
15 | Cc1nc(Cl)c(C(=O)NC(=O)NCc2ccccc2)c(C)c1Cl | 43.1 | 14.3 | 150
16 | CCN(CC(=O)Nc1ccc2c(c1)OCCO2)C(=O)CCc1ccccc1Cl | 12.1 | 20.8 | 402
17 | O=C(COC(=O)c1ccc(F)cc1)NC1CC1 | 21.2 | 14.8 | 413
18 | COCCN(C(=O)CSc1nncn1-c1ccccc1)c1c(N)n(Cc2ccccc2)c(=O)[nH]c1=O | 14.3 | 18.4 | 126
19 | Cc1ccc(NC(=O)CN(C)C(=O)Cn2cc(C(F)(F)F)ccc2=O)cc1 | 19.4 | 15.7 | 612
20 | CCCOc1ccc(N2C(=O)CC(N3CCOCC3)C2=O)cc1 (stereo not given) | 17.3 | 29.6 | 218
21 | Cc1ccc(NC(=O)C2CC(=O)n3c(nc4ccccc43)N2)cc1 (stereo not given) | 14.8 | 14.3 | 399

Row | SMILES | double positive events (at 7.7 µM) [%] | double positive events [1] [%] | percent response (vesicle binding) (at 7.7 µM) [%]
22 | O=S(=O)(Nc1cccc2cccnc12)c1ccc(S(=O)(=O)N2CCCC2)cc1 | 22.4 | 8.8 | 787
23 | O=C(NC(NC(=S)Nc1ccccc1C(=O)O)C(Cl)(Cl)Cl)c1ccco1 (stereo not given) | 11.5 | 27.9 | 252
24 | CCOC(=O)N1CCN(c2nc(-c3ccco3)cc(C(F)(F)F)n2)CC1 | 17.7 | 8.1 | 257
25 | CCCCCC(=O)NCC(C)NC(=O)CCCCC (stereo not given) | 24 | 20.3 | 421
26 | Cc1ccc2[nH]cc(CCNC(=O)/C=C/c3ccco3)c2c1 | 18.2 | 13.8 | 253
27 | COc1ccc(OC(C)C(=O)N2CCOCC2)cc1 (stereo not given) | 25.2 | 13.9 | 376
28 | Cc1ccc(NC(=O)CSc2nnc(-c3cccnc3)o2)c(C)c1 | 16.9 | 14 | 196
29 | CC1CCN(C(=O)c2ccc(S(=O)(=O)Cc3ccccc3F)c([N+](=O)[O-])c2)CC1 | 11.7 | 38 | 240
30 | Cc1ccc(C)c(NC(=O)CN(C)C(=O)c2cc3c(s2)CCCCC3)c1 | 20.2 | 8.6 | 572
31 | CC1CCCCC1NC(=O)COC(=O)c1ccc2ncsc2c1 (stereo not given) | 29.9 | 4.3 | 235
32 | Cc1nn(CC(=O)Nc2ccc3c(c2)nc(CN2CCCCC2)n3C)c(=O)c2ccccc12 | 34.9 | 22.2 | 156
33 | O=C(CNC(=O)c1ccccc1F)NCCc1ccccc1F | 10.2 | 30.9 | 350
34 | CCCCNC(=O)c1c(CSc2ccccc2)noc1C(=O)NCc1ccccc1 | 19.2 | 19.6 | 159
35 | O=C(NCc1ccc(Cl)cc1)c1ccc(CNc2c(N3CCCC3)c(=O)c2=O)cc1 | 16.9 | 13.1 | 243
36 | CCCNC(=O)C(Cc1ccccc1F)NC(=O)c1ccc(C#N)cc1 (stereo not given) | 15 | 10.2 | 480
37 | CC(C)c1ccc(NC(=O)c2cc(S(=O)(=O)NCC3COc4ccccc4O3)ccc2F)cc1 (stereo not given) | 24.5 | 26.2 | 196
38 | CC(=O)c1cccc(NC(=O)c2ccncc2)c1 | 33.4 | 3.1 | 568
39 | CCOC(=O)[C@H]1[C@H]2COc3ccc(Cl)cc3[C@@H]2N2C(=O)CN(Cc3ccco3)C(=O)[C@@]12C | 11.4 | 15.9 | 443
40 | NS(=O)(=O)c1ccc(CNC(=O)CSc2ccccc2)cc1 | 14.3 | 13 | 163
41 | CCc1cc(C(=O)Nc2cc(S(=O)(=O)N(CC)CC)ccc2N2CCOCC2)sc1C | 8.8 | 25.2 | 163
42 | NC(=O)c1c(NC(=O)c2cccnc2Cl)sc2c1CCCC2 | 8.6 | 25.5 | 98.2

Complete entries, looked up by structure.
`O=C(NCC(c1cccs1)N1CCc2ccccc21)c1ccccc1` (stereo not given) reads double positive events (at 7.7 µM) [%]: 18.4; double positive events [1] [%]: 19.6; percent response (vesicle binding) (at 7.7 µM) [%]: 224
`O=S(=O)(Nc1cccc2cccnc12)c1ccc(S(=O)(=O)N2CCCC2)cc1` reads double positive events (at 7.7 µM) [%]: 22.4; double positive events [1] [%]: 8.8; percent response (vesicle binding) (at 7.7 µM) [%]: 787
`CC(C)c1ccc(NC(=O)c2cc(S(=O)(=O)NCC3COc4ccccc4O3)ccc2F)cc1` (stereo not given) reads double positive events (at 7.7 µM) [%]: 24.5; double positive events [1] [%]: 26.2; percent response (vesicle binding) (at 7.7 µM) [%]: 196

Going on with the list.

Row | SMILES | double positive events (at 7.7 µM) [%] | double positive events [1] [%] | percent response (vesicle binding) (at 7.7 µM) [%]
43 | Nc1c(C(=O)CSc2nnc(-c3ccccc3F)o2)c(=O)[nH]c(=O)n1C1CC1 | 7.6 | 13.2 | 240
44 | O=C(c1cc2cc(F)ccc2[nH]1)N1CCCC(Nc2ccc(F)cc2)C1 (stereo not given) | 41.2 | 26.8 | 543
45 | Cc1nnn(C23CC4CC(CC(CC(=O)Nc5ccc(C)c(Cl)c5)(C4)C2)C3)n1 | 10 | 15.1 | 65.9
46 | CCC(NC(=O)C1CCC1)c1ccc(C)cc1 (stereo not given) | 5.4 | 33.3 | 112
47 | Cc1ccc(C(C)C)c(OCCNS(C)(=O)=O)c1 | 10.3 | 38.1 | 96.8
48 | CCCNC(=O)CN1CCN(S(=O)(=O)c2ccc(Br)s2)CC1 | 12.2 | 25.8 | 380
49 | O=C(c1ccccc1F)N1CCc2ccccc21 | 37 | 19.5 | 
50 | COc1ccccc1C(=O)n1nc(-c2ccco2)nc1SC | 18.1 | 29.4 | 226
51 | CCCCN(C(=O)C1CCC1)c1c(N)n(CC(C)C)c(=O)[nH]c1=O | 11.7 | 18.2 | 163
52 | COc1cc(OC)c2cc(C(=O)N[C@H](C(=O)N3CCC[C@H]3C(=O)O)C(C)C)n(C)c2c1 | 23.1 | 3.1 | 367
53 | CC(C)CCNC(=O)[C@H](Cc1ccccc1)N1Cc2ccccc2C1=O | 15.9 | 21.9 | 172
54 | COc1ccc(CC(=O)NC(=S)Nc2cccc(CO)c2)cc1 | 28.3 | 27.9 | 277
55 | Cn1c(N)c(C(=O)COC(=O)CNC(=O)c2ccccc2F)c(=O)n(C)c1=O | 13.3 | 20.1 | 237
56 | N/C(CC(=O)NCCOc1ccccc1)=N\O | 29.7 | 16.7 | 271
57 | O=C(Nc1ccc2c(c1)oc1ccccc12)c1cccnc1 | 12.5 | 30.3 | 375
58 | Fc1ccc(-c2noc(-c3ccc4c(c3)CCO4)n2)cc1 | 23.1 | 19.4 | 618
59 | COc1ccc(/C=N/Nc2ncnc3sc4c(c23)CCCC4)cc1OC | 33.8 | 16.6 | 713
60 | COc1ccc(Nc2ccccc2N)cc1 | 6.2 | 21.4 | 236
61 | CC(=O)OC[C@]12CC[C@H]3[C@@](C)(CC[C@H]4C(C)(C)CCC[C@]34C)[C@@H]1C[C@@H](C1=CC(=O)O[C@@H]1OC(C)=O)O2 | 33.5 | 8.6 | 312
62 | Cc1cc2nncn2c2ccccc12 | 18.9 | 9.7 | 528
63 | CC(=O)N1N=C(c2cccs2)CC1c1cc2cc(C)ccc2nc1Cl (stereo not given) | 22.1 | 25.3 | 226

Row | SMILES | double positive events (at 7.7 µM) [%] | double positive events [1] [%] | percent response (vesicle binding) (at 7.7 µM) [%]
64 | O=C(/C=C/c1cccs1)NNC(=O)c1ccccc1 | 21 | 31.2 | 265
65 | Cc1ccc(NC2=CC(=O)C(=O)c3ccccc32)c(C)c1 | 11.7 | 32.9 | 332
66 | Cc1cc(C(=O)N/N=C/c2cccc([N+](=O)[O-])c2)c2ccccc2n1 | 8.4 | 26.9 | 225
67 | O=C(NC1CCCCC1)C(=O)c1c[nH]c2ccccc12 | 33.4 | 16.7 | 148
68 | O=C(NC(Cc1cccc(F)c1)C(=O)O)C1CCCCC1 (stereo not given) | 39.8 | 13.5 | 320
69 | CCN(CC)c1ccc2c(Cl)cc(=O)oc2c1 | 11.2 | 27.8 | 303
70 | Cc1nnc(SCC(=O)NC2CC2)n1CCc1ccccc1 | 9 | 15.6 | 436
71 | CC(C)(C)OC(=O)NCCCCCc1nnc(SCc2ccc(F)cc2)o1 | 40.4 | 19.9 | 471
72 | Cc1cc(N2CCN(C)CC2)nc2ccc(NC(=S)N3CCC4(CC3)OCCO4)cc12 | 14.8 | 2.8 | 135
73 | Cn1c(=O)c2c(nc(SCC(=O)c3ccccc3F)n2C)n(C)c1=O | 10.4 | 8 | 156
74 | CCN(CC)C(=O)c1cccc2c1C(=O)c1ccccc1-2 | 19.5 | 18.7 | 215
75 | Fc1ccc(C2CC(c3ccco3)n3ncnc3N2)cc1 (stereo not given) | 9.8 | 13.2 | 161
76 | COc1ccc2oc(=O)c(-c3csc(Nc4cccc(O)c4)n3)cc2c1 | 24.5 | 18.7 | 308
77 | Cc1cc(Cl)ccc1NC(=O)COC(=O)CCNS(=O)(=O)c1ccccc1 | 10.7 | 24.6 | 103
78 | CN(C)c1ccc(/C=N/NC(=O)c2ccco2)cc1 | 6.6 | 16.3 | 276
79 | CCN(CC)C(=O)[C@H]1CC(CC(=O)NC(C)(C)C)C(=O)N2CCc3c([nH]c4ccccc34)[C@]12C (stereo not given in full) | 22.2 | 24.2 | 714
80 | CCOc1ccc(S(=O)(=O)N2CCOCC2)cc1NC(=O)CSCC(=O)Nc1cccc(C)c1 | 31.3 | 14.8 | 482
81 | O=C(COc1ccccc1F)NCC(c1ccco1)N1CCCC1 (stereo not given) | 26.5 | 11.1 | 322
82 | FC(F)(F)c1nnc2sc(-c3cccs3)nn12 | 19.2 | 21.6 | 152
